For one substance, binding results are on record in publication PMC7738899.

By UniProt entry, the sequences of proteins in these tests, tags left out.
UniProt Q9NZI8: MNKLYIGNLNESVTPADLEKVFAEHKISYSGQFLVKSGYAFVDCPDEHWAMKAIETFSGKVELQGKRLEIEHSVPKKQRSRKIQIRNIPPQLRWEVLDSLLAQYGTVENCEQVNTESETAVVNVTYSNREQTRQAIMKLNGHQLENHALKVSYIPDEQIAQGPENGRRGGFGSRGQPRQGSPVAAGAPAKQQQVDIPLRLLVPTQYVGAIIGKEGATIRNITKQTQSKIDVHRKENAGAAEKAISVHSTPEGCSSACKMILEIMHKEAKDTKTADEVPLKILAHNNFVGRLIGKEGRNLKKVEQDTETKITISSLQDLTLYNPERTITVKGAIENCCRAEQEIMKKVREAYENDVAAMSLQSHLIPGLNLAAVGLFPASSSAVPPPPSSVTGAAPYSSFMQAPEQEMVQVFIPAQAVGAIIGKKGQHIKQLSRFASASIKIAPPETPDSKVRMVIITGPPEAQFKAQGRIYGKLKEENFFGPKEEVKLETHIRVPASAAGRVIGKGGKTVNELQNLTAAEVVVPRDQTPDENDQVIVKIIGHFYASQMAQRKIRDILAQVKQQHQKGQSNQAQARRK
UniProt P11940: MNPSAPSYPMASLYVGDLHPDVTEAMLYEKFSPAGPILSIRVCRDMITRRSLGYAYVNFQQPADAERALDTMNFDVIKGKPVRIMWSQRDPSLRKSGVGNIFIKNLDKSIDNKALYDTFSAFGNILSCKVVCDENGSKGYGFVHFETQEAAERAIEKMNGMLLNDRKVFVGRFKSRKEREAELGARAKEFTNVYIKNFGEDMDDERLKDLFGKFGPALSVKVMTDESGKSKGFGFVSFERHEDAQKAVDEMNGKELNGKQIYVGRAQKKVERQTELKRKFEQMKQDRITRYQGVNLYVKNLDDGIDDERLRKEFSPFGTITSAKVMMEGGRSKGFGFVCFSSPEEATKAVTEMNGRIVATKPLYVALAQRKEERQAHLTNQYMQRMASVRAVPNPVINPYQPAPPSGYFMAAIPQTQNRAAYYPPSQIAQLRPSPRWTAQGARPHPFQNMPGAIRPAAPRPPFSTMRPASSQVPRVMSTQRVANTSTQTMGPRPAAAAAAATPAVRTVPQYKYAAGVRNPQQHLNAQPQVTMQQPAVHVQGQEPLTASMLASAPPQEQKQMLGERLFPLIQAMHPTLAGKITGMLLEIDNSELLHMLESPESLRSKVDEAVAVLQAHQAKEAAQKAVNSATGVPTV

For this assay, the target named is Insulin-like growth factor 2 mRNA-binding protein 1 (IGF2BP1), FLAG-tagged (UniProt Q9NZI8). The assay is described as follows: co-IP; AN3CA cells expressing FLAG-IGF2BP1; lysate incubated with flag antibody-magnetic bead complex at 4 °C overnight; beads washed five times with buffer containing 10 μg/mL RNAse A; eluate analysed by western blotting (and silver staining). On the technique in general: Immunoblotting shows a protein as a band on a membrane.

These are yes or no findings as the source states them, for the method shown. Binding seen in cells or lysates may run through a third protein. Some binding calls cover weakened binding; strength is not graded here.

Take “polyadenylate-binding protein 1 (PABPC1) (from UniProt P11940 1-636)”: the binding entry was “binds”.
